Data as given in PubChem BioAssay AID602196 (INSERM, 2012).
Shown is an unselected part of about 23,000 deposited reagents. Over the whole deposit, 455 (2%) got an active call. 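Active includes both protection and sensitisation; some change values fall well beyond the stated -50 to +50 range.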 A number with no mark means an inactive call. Not given: the amount of reagent.

Screen: 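Genes whose knock-down alters cisplatin killing of lung cancer cells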
Cells: human A549 lung cancer cells
Knock-down reagent: siRNA pair against human genes
Time to read-out: 48 h transfection before cisplatin; time from cisplatin to read-out not stated
Challenge: cisplatin at a dose killing half of control-siRNA cells; exact dose and duration not given
Detection: 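Cisplatin cell death as a shift from the 50% death seen with control siRNA; siRNAs toxic or growth-blocking alone scored 0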
Scale: two-siRNA summed score (-2 to +2): higher = both siRNAs protect from cisplatin killing; -2 means both sensitise; mean protection from cisplatin (shift in death) and protection from cisplatin (shift in death), siRNA C and protection from cisplatin (shift in death), siRNA D: higher = protection from cisplatin killing
Active means: 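Each siRNA scores 0 if harmful alone by LDH or WST-1, otherwise +1 if it reduces and -1 if it increases cisplatin killing; a gene is active when both siRNAs agree (sum +2 or -2)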
Meaning of the calls: active = both siRNAs shift cisplatin killing the same way; inactive = no consistent shift, or siRNA harmful alone

The first 4 records, to show the layout:
Target gene,PubChem SID,two-siRNA summed score (-2 to +2),mean protection from cisplatin (shift in death) (%),"protection from cisplatin (shift in death), siRNA C (%)","protection from cisplatin (shift in death), siRNA D (%)"
SEC31B,SID131523174,2 (active),23.2,23.7,22.8
OR2T6,SID131507719,0,0.2,-18.3,18.7
ZNF536,SID131506341,0,-1.7,-8.5,5.2
LOC390003,SID131513053,0,6.1,19,-6.7

The listing, from the start:
Target gene,PubChem SID,two-siRNA summed score (-2 to +2),mean protection from cisplatin (shift in death) (%),"protection from cisplatin (shift in death), siRNA C (%)","protection from cisplatin (shift in death), siRNA D (%)"
SEC31B,SID131523174,2 (active),23.2,23.7,22.8
OR2T6,SID131507719,0,0.2,-18.3,18.7
ZNF536,SID131506341,0,-1.7,-8.5,5.2
LOC390003,SID131513053,0,6.1,19,-6.7
LOC442529,SID131514176,0,7.5,6.2,8.8
OR2S2,SID131511300,0,4.2,-1.9,10.3
LIG4,SID131510908,0,3.8,-0.1,7.6
LOC137485,SID131505753,0,-2.6,1.9,-7.1
CELA3A,SID131502767,-1,8.4,28.5,-11.6
SLC16A6P1,SID131507453,0,-0.1,3.3,-3.5
MS4A6A,SID131502859,0,-22.2,-31.9,-12.6
KIF2A,SID131510878,0,3.7,12.5,-5
DIS3L,SID131511762,0,4.7,7,2.4
YWHAQ,SID131500708,-1,-17.4,-8.2,-26.5
TRIM31,SID131510566,0,3.4,2.5,4.3
LOC115749,SID131512784,0,5.9,5.8,5.9
WSCD1,SID131517758,0,14.7,20.1,9.2
HEXB,SID131517796,0,14.8,10.8,18.9
LINC01777,SID131509725,0,2.4,-1.3,6.1
LOC441109,SID131516125,0,10.3,6.3,14.3
RPL36,SID131512652,0,5.7,4.1,7.3
CDCA8,SID131507747,0,0.2,-3.5,4
RAB21,SID131501402,-1,-10,-32,12
DCAF8L1,SID131516236,0,10.5,18.8,2.2
TMEM74,SID131506198,0,-1.9,-6.1,2.4
LOC441951,SID131516867,0,11.8,3.6,20
FLG,SID131514035,0,7.3,14.2,0.4
NAA30,SID131514858,0,8.3,9.2,7.5
DOCK3,SID131504239,0,-6,-9.2,-2.9
PPA2,SID131520790,1,11.1,13.2,9
LOC388477,SID131507288,0,-0.3,-1.8,1.2
SLC25A20,SID131517459,0,13.5,6.6,20.4
DENND5B,SID131507013,0,-0.7,10.1,-11.4
MS4A4A,SID131500498,-1,-24.5,-25.8,-23.2
LOC442007,SID131520940,1,11.6,22.9,0.3
TAS2R16,SID131501940,-1,-6.5,2.5,-15.5
ITGB2,SID131502574,-1,-0.6,28.2,-29.4
THUMPD3,SID131511744,0,4.7,14.1,-4.7
LOC387856,SID131516123,0,10.3,11,9.6
